In patent publication US20200355686A1 one finds binding data, which are given here for 1 molecule.

By UniProt entry, the sequences of proteins in these tests, tags left out. Where a name states a change or a piece, a line headed by the entry shows the natural chain unless it says otherwise.
UniProt Q9Y618: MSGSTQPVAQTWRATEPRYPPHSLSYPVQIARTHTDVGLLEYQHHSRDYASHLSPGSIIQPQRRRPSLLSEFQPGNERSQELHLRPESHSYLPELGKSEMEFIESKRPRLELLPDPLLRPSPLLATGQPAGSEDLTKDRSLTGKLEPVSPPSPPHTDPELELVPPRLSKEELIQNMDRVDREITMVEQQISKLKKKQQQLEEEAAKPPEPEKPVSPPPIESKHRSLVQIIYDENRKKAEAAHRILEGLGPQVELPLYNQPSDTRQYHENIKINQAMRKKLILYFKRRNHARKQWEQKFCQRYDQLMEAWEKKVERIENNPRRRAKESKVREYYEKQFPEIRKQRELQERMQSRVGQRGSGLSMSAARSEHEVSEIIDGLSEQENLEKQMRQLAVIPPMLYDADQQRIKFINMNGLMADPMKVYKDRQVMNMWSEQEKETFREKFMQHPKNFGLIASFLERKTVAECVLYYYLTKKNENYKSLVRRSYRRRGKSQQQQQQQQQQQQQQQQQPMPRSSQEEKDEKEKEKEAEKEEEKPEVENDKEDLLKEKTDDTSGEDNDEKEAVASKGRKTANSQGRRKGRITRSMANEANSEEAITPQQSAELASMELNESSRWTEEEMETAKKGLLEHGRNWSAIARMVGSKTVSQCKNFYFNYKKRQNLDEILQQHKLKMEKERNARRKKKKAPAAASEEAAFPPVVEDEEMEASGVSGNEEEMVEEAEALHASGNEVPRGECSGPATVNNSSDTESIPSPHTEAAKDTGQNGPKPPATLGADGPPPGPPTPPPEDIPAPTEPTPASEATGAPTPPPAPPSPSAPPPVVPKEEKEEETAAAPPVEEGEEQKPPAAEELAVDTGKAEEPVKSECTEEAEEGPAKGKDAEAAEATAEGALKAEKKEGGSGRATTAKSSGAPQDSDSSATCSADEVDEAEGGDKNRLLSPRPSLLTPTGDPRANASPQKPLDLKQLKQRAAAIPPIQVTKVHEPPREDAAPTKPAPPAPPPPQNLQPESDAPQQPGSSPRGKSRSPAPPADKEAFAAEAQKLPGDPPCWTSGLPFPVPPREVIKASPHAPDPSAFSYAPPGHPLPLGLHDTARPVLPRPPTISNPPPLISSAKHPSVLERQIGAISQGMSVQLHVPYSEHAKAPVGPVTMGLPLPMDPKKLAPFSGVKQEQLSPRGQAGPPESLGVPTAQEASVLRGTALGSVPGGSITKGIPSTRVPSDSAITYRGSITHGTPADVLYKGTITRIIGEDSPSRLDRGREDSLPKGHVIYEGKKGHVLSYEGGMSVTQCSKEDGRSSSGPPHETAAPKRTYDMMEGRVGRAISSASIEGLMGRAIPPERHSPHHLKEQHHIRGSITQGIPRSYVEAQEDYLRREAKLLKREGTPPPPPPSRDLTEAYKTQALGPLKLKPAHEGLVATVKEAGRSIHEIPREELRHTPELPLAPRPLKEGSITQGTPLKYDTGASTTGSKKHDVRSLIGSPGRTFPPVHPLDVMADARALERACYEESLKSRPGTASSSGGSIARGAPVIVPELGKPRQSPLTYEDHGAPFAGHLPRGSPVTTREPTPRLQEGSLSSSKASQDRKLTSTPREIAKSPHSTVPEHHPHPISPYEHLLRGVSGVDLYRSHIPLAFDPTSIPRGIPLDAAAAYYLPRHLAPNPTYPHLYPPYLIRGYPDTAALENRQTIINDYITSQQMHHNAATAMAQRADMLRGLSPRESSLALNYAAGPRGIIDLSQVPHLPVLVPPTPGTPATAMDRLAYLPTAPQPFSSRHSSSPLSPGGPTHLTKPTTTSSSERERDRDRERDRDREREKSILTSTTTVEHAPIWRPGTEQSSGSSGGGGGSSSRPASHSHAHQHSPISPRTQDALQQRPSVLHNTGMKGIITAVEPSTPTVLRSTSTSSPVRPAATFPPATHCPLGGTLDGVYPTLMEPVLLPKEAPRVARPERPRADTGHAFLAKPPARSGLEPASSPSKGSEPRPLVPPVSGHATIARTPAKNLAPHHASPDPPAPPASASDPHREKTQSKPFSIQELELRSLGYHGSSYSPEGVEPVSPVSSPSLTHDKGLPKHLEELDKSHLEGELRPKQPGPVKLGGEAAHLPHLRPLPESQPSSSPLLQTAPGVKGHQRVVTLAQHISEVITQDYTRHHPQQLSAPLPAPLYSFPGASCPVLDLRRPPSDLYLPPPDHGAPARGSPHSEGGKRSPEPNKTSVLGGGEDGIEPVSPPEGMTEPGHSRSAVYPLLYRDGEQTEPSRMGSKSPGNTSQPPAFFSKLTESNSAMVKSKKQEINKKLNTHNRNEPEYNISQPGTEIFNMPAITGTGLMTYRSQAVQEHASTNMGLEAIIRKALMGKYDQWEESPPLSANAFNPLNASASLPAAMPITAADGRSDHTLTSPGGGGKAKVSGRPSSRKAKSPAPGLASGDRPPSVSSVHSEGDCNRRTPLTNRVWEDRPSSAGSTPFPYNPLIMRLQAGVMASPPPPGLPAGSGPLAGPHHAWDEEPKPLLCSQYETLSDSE

The target of assay [1] is BQ323636.1 splice variant of NCOR2 (human) (UniProt Q9Y618). The assay is described as follows: immunofluorescence staining of fixed cells (the methods in paragraph 127 name clone D12 as primary antibody); consistent with IHC.
Assay [2] shares this target. The experiment in a line: western blot, antibody dilution 1:1000. A general note: A western blot detects proteins with antibodies after separation by electrophoresis.

Results are given in words; binding and its absence hold for the method and conditions named. Some results given as binding are weak or reduced against the parent protein; the word gives no strength.

B1: mouse monoclonal antibody specific to BQ323636.1 (the monoclonal antibody of the present invention, clone not named) (antibody, V domains shown)
VH: EVKLEESGGGLVQPGGSMKLSCVASGFTFSNYWMNWVRQSPEKGLEWVAEIRLRSSYYATHYAESVKGRFTISRDDSKSSVYLQMNNLRAEDTGIYYCTMITTGYFDVWGAGTTVTVSS
VL: DVVMTQTPLSLPVSLGDQASISCRSSQSLIHSNGNTYLHWYLQKPGQSPKLLIYKVSNRFSGVPDRFSGSGSGTDFTLKISRVEAEDLGVYFCSQITHIPRTFGGGTKLEIKR
Regarding B1, the binding entry in assay [1] and in assay [2] was “binds” throughout.
